The list shows a part of the results.
Columns and labels:
Experiment in all cases: log2 fold change, soluble protein after heating vs DMSO (PISA); higher = thermal stabilisation; K562 lysate, 10 uM; active = over 0.2 and 3.5 SD of the protein, either way, in both replicates (recomputed)
lapatinib = compound: CS(=O)(=O)CCNCc1ccc(-c2ccc3ncnc(Nc4ccc(OCc5cccc(F)c5)c(Cl)c4)c3c2)o1 [lapatinib]
Method in brief: (§1)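 Quantification was by TMTpro 16plex LC-MS/MS with equalised channel sums, applied to the supernatant after 21,000xg for 90 min. Samples were crude K562 extract at 1 mg/mL protein in PBS pH 7.4 with 1 mM MgCl2, treated with 10 μM compound for 30 min, heated for 3 min across 48°C-58°C, pooled and brought to 0.5% NP-40 at 4°C. Values are log-two fold changes in thermal stability relative to solvent controls, from duplicates.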

Sequences of proteins named here, by UniProt entry; tags and fusion partners are left off. A change or cut given only in a name is not applied to a line headed by its entry.
UniProt P08621, whole entry, looked up: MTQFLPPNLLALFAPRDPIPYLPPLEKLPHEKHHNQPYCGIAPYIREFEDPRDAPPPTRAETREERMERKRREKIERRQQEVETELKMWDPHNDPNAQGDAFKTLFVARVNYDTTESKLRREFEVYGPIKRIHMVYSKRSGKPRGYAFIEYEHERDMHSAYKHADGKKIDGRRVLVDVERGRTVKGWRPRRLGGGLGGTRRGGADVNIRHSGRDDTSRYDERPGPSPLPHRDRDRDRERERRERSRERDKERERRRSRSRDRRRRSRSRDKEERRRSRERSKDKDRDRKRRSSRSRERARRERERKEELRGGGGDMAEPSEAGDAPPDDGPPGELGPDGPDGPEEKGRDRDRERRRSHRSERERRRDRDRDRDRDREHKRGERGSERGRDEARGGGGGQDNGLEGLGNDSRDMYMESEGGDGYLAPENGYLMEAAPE
UniProt Q6GMV2: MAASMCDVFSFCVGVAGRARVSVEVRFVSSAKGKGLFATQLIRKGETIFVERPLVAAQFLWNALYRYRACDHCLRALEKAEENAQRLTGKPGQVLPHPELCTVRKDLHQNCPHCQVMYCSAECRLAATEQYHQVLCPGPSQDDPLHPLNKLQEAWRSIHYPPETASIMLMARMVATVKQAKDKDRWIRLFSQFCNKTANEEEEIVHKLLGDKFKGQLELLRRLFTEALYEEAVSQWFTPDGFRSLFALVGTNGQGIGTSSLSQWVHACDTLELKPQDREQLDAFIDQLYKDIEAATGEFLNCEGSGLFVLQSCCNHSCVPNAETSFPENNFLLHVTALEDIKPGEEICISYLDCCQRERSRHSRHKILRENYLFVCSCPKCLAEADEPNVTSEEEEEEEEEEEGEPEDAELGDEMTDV
UniProt P62308, whole entry, looked up: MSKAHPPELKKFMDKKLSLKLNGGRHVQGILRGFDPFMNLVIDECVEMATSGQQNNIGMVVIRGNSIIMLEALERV
UniProt Q14683: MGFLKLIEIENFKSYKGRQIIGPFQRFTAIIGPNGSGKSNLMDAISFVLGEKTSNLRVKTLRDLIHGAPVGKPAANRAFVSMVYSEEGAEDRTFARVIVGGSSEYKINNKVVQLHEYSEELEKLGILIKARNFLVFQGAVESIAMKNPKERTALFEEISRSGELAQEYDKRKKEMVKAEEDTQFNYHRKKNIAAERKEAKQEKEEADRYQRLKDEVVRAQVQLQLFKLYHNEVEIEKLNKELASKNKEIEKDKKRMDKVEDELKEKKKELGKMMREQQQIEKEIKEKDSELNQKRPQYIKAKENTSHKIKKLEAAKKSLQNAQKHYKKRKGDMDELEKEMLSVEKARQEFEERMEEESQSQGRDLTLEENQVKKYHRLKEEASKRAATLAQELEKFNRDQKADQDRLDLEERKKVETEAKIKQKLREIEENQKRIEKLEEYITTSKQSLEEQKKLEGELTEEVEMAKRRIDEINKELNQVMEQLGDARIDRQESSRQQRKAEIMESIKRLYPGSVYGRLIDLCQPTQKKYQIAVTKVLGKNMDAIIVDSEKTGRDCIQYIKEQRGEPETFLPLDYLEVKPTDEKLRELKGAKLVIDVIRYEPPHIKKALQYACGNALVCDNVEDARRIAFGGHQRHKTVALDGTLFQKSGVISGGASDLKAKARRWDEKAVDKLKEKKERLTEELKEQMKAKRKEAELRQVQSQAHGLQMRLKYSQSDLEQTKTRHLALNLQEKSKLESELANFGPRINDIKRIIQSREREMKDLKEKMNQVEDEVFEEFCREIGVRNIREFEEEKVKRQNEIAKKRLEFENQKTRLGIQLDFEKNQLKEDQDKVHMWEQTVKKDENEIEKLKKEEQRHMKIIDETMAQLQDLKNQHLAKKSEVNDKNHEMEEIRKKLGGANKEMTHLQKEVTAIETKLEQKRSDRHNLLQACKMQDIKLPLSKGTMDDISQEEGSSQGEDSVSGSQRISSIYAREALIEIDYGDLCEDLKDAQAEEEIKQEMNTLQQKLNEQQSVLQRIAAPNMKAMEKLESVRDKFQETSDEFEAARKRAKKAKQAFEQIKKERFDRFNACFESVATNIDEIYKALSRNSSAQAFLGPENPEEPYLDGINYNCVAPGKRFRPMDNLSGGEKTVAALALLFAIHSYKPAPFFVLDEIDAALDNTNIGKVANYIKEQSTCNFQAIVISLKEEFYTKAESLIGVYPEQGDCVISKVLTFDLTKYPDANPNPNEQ
UniProt Q15036: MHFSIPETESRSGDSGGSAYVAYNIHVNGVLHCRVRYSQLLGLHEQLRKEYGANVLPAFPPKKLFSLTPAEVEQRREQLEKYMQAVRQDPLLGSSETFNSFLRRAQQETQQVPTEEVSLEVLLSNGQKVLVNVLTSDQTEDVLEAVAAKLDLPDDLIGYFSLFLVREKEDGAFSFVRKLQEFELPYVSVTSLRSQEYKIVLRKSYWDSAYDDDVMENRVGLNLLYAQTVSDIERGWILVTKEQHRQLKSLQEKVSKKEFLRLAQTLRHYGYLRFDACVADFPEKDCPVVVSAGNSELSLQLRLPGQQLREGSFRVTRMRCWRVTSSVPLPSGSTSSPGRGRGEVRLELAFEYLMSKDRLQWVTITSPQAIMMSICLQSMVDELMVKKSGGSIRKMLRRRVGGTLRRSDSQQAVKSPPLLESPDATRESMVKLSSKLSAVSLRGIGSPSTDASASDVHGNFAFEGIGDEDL
UniProt O95347, whole entry, looked up: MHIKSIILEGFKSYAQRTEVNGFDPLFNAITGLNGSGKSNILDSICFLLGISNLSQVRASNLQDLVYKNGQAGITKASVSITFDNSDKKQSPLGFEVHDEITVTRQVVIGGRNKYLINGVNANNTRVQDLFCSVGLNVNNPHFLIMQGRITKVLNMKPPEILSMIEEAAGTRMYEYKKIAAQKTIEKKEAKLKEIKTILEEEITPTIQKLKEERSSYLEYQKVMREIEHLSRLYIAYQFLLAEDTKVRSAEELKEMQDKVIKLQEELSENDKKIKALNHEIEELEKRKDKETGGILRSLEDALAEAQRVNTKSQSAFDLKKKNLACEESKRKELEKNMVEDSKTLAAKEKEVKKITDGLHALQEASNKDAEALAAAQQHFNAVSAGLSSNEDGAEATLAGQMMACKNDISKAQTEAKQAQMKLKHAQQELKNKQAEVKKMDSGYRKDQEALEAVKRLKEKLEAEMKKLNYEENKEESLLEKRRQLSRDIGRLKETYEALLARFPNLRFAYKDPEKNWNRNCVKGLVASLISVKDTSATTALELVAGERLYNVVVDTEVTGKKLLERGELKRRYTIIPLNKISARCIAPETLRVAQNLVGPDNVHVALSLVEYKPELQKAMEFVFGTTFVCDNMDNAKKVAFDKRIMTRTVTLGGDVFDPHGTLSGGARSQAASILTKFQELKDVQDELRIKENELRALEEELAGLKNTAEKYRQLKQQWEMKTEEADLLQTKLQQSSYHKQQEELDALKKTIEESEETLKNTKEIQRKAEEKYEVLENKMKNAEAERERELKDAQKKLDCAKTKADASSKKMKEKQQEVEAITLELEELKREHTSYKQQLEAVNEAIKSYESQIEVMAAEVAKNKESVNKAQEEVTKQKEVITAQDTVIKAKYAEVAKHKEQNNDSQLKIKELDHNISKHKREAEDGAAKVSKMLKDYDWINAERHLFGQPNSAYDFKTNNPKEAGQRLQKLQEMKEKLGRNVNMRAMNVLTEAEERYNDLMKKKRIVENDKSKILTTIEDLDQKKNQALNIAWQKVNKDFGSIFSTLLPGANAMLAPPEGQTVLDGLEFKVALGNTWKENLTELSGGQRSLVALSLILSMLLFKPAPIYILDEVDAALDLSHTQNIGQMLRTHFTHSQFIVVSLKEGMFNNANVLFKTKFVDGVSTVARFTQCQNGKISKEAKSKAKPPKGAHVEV
UniProt O14508, whole entry, looked up: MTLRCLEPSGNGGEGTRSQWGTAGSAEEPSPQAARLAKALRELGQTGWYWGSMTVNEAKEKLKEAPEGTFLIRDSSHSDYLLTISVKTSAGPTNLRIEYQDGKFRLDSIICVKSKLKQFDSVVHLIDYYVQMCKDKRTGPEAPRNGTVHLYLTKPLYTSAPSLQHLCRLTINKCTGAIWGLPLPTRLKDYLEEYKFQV
UniProt P08047, whole entry, looked up: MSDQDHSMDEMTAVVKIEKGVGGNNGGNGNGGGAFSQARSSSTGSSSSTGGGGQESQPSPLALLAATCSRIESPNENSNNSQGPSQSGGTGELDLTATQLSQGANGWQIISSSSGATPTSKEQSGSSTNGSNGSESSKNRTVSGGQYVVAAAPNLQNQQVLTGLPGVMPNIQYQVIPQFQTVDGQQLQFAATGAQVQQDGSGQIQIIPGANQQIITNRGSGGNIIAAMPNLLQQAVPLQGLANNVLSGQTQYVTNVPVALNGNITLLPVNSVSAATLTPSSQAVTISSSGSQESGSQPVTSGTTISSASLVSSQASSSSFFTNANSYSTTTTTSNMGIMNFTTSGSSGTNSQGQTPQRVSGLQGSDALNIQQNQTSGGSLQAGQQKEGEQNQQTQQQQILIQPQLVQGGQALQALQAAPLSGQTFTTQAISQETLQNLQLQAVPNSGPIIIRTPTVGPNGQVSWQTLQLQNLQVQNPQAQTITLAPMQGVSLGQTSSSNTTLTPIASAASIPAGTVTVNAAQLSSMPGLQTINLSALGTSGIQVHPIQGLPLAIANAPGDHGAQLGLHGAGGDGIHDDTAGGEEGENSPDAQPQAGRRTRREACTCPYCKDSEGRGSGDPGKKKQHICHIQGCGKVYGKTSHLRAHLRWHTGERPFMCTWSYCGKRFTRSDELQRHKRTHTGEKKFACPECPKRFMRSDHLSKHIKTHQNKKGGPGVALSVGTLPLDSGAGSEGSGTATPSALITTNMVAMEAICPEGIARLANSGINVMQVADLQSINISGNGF

pictilisib = compound: CS(=O)(=O)N1CCN(Cc2cc3nc(-c4cccc5[nH]ncc45)nc(N4CCOCC4)c3s2)CC1 [pictilisib]
Method in brief: as §1

crizotinib = compound: C[C@@H](Oc1cc(-c2cnn(C3CCNCC3)c2)cnc1N)c1c(Cl)ccc(F)c1Cl [crizotinib]
Method in brief: as §1

[1] = compound: C[C@H](C1=CC=C(C=C1)C(=O)NC2=C3C=CNC3=NC=C2)N
Method in brief: as §1

duvelisib = compound: C[C@H](Nc1ncnc2nc[nH]c12)c1cc2cccc(Cl)c2c(=O)n1-c1ccccc1 [duvelisib]
Method in brief: as §1

gandotinib = compound: Cc1cc(Nc2cc(CN3CCOCC3)c3nc(C)c(Cc4ccc(Cl)cc4F)n3n2)n[nH]1 [gandotinib]
Method in brief: as §1

tozasertib = compound: Cc1cc(Nc2cc(N3CCN(C)CC3)nc(Sc3ccc(NC(=O)C4CC4)cc3)n2)n[nH]1 [tozasertib]
Method in brief: as §1

doramapimod = compound: Cc1ccc(-n2nc(C(C)(C)C)cc2NC(=O)Nc2ccc(OCCN3CCOCC3)c3ccccc23)cc1 [doramapimod]
Method in brief: as §1

bafetinib = compound: Cc1ccc(NC(=O)c2ccc(CN3CC[C@H](N(C)C)C3)c(C(F)(F)F)c2)cc1Nc1nccc(-c2cncnc2)n1 [bafetinib]
Method in brief: as §1

[2] = compound: Cc1cccc(CC(=O)N2CCc3c2ccc(-c2cn(C)c4ncnc(N)c24)c3F)n1
Method in brief: as §1

nilotinib = compound: Cc1cn(-c2cc(NC(=O)c3ccc(C)c(Nc4nccc(-c5cccnc5)n4)c3)cc(C(F)(F)F)c2)cn1 [nilotinib]
Method in brief: as §1

[3] = compound: Cc1nc(Nc2n[nH]c3c2CN(C(=O)N[C@H](CN(C)C)c2ccccc2)C3(C)C)c2sccc2n1
Method in brief: as §1

dasatinib = compound: Cc1nc(Nc2ncc(C(=O)Nc3c(C)cccc3Cl)s2)cc(N2CCN(CCO)CC2)n1 [dasatinib]
Method in brief: as §1

[4] = compound: Cc1ncc(-c2ccnc(Nc3ccc(S(C)(=O)=O)cc3)n2)n1C(C)C
Method in brief: as §1

[5] = compound: Cn1cc(-c2ccc3c(c2)CCN3C(=O)Cc2cccc(C(F)(F)F)c2)c2c(N)ncnc21
Method in brief: as §1

quisinostat = compound: Cn1cc(CNCC2CCN(c3ncc(C(=O)NO)cn3)CC2)c2ccccc21 [quisinostat]
Method in brief: as §1

tipifarnib = compound: Cn1cncc1[C@@](N)(c1ccc(Cl)cc1)c1ccc2c(c1)c(-c1cccc(Cl)c1)cc(=O)n2C [tipifarnib]
Method in brief: as §1

[6] = compound: NC(=O)Nc1cc(-c2cccc(F)c2)sc1C(=O)N[C@H]1CCCNC1
Method in brief: as §1

[7] = compound: NC(=O)c1cnc(N[C@@H]2CCCC[C@@H]2N)nc1Nc1cccc(-n2nccn2)c1
Method in brief: as §1

[8] = compound: NC1(c2ccc(-c3nc4ccn5c(=O)[nH]nc5c4cc3-c3ccccc3)cc2)CCC1
Method in brief: as §1

Measured: log2 fold change

SNRNP70 (UniProt P08621)
inactive: lapatinib -0.023 | pictilisib 0.005 | crizotinib 0.013 | [1] -0.004 | duvelisib -0.009 | gandotinib -0.005 | tozasertib -0.01 | doramapimod 0.003 | bafetinib -0.035 | [2] -0.002 | nilotinib 0.001 | [3] -0.001 | dasatinib 0.015 | [4] -0.019 | [5] 0.004 | quisinostat 0.026 | tipifarnib 0 | [6] -0.017 | [7] -0.004 | [8] -0.007

SMYD5 (UniProt Q6GMV2)
inactive: lapatinib -0.036 | pictilisib -0.003 | crizotinib -0.032 | [1] -0.095 | duvelisib -0.025 | gandotinib 0.032 | tozasertib 0.008 | doramapimod 0.025 | bafetinib -0.062 | [2] 0.05 | nilotinib 0.097 | [3] -0.017 | dasatinib -0.015 | [4] 0.028 | [5] -0.008 | quisinostat -0.046 | tipifarnib 0.019 | [6] 0.014 | [7] 0.012 | [8] -0.032

SNRPG (UniProt P62308)
inactive: lapatinib -0.008 | pictilisib -0.031 | crizotinib 0.014 | [1] -0.156 | duvelisib 0.013 | gandotinib 0.099 | tozasertib -0.055 | doramapimod -0.036 | bafetinib 0.039 | [2] 0.101 | nilotinib 0.027 | [3] -0.008 | dasatinib 0.016 | [4] -0.012 | [5] -0.038 | quisinostat -0.02 | tipifarnib 0.016 | [6] 0.026 | [7] 0.004 | [8] 0.002

SMC1A (UniProt Q14683)
inactive: lapatinib -0.003 | pictilisib -0.001 | crizotinib 0.008 | [1] 0.046 | duvelisib 0.012 | gandotinib -0.006 | tozasertib -0.001 | doramapimod 0.01 | bafetinib -0.036 | [2] -0.008 | nilotinib -0.023 | [3] -0.01 | dasatinib 0.004 | [4] -0.01 | [5] 0.023 | quisinostat 0 | tipifarnib 0.012 | [6] -0.003 | [7] 0.004 | [8] -0.002

Taken from the listing (two entries):
SMYD5 (UniProt Q6GMV2)
inactive: lapatinib -0.036 | pictilisib -0.003 | crizotinib -0.032 | [1] -0.095 | duvelisib -0.025 | gandotinib 0.032 | tozasertib 0.008 | doramapimod 0.025 | bafetinib -0.062 | [2] 0.05 | nilotinib 0.097 | [3] -0.017 | dasatinib -0.015 | [4] 0.028 | [5] -0.008 | quisinostat -0.046 | tipifarnib 0.019 | [6] 0.014 | [7] 0.012 | [8] -0.032

SNRPG (UniProt P62308)
inactive: lapatinib -0.008 | pictilisib -0.031 | crizotinib 0.014 | [1] -0.156 | duvelisib 0.013 | gandotinib 0.099 | tozasertib -0.055 | doramapimod -0.036 | bafetinib 0.039 | [2] 0.101 | nilotinib 0.027 | [3] -0.008 | dasatinib 0.016 | [4] -0.012 | [5] -0.038 | quisinostat -0.02 | tipifarnib 0.016 | [6] 0.026 | [7] 0.004 | [8] 0.002

(further entries)

SNX17 (UniProt Q15036)
inactive: lapatinib 0.02 | pictilisib -0.025 | crizotinib -0.039 | [1] 0.08 | duvelisib -0.049 | gandotinib -0.009 | tozasertib 0.02 | doramapimod -0.005 | bafetinib -0.067 | [2] -0.001 | nilotinib 0.053 | [3] 0.023 | dasatinib 0.049 | [4] 0.084 | [5] -0.017 | quisinostat 0.019 | tipifarnib -0.011 | [6] -0.024 | [7] 0.004 | [8] -0.001

SMC2 (UniProt O95347)
inactive: lapatinib -0.019 | pictilisib 0.013 | crizotinib -0.028 | [1] 0.121 | duvelisib -0.009 | gandotinib -0.177 | tozasertib 0.014 | doramapimod 0.037 | bafetinib -0.02 | [2] -0.059 | nilotinib -0.017 | [3] -0.005 | dasatinib -0.036 | [4] 0.007 | [5] 0.025 | quisinostat -0.023 | tipifarnib 0.024 | [6] 0.034 | [7] 0.017 | [8] -0.003

SOCS2 (UniProt O14508)
inactive: lapatinib -0.046 | pictilisib -0.013 | crizotinib -0.02 | [1] -0.032 | duvelisib 0.003 | gandotinib 0.045 | tozasertib 0.037 | doramapimod 0.035 | bafetinib -0.022 | [2] 0.107 | nilotinib -0.007 | [3] -0.026 | dasatinib 0.012 | [4] 0.034 | [5] 0.003 | quisinostat -0.003 | tipifarnib 0.038 | [6] 0.036 | [7] 0.011 | [8] -0.023

SP1 (UniProt P08047)
inactive: lapatinib 0.077 | pictilisib 0.009 | crizotinib 0.022 | [1] -0.024 | duvelisib -0.063 | gandotinib 0.056 | tozasertib -0.049 | doramapimod 0.095 | bafetinib -0.027 | [2] 0.031 | nilotinib -0.035 | [3] -0.02 | dasatinib -0.028 | [4] 0.117 | [5] -0.019 | quisinostat 0.055 | tipifarnib -0.031 | [6] -0.02 | [7] 0.008 | [8] 0.005
